Laboratory results as given in the supplement of paper PMC8728848.
This is one part of the list.

What was measured:
Test in all cases: glycan array binding signal (z-score within array); higher = stronger binding
Settings in all cases: glycan notation: IUPAC condensed, linker removed
[1] = target: Fuc(a1-2)Gal(b1-4)GlcNAc(b1-3)Gal(b1-4)GlcNAc(b1-3)Gal(b1-4)GlcNAc
Method in brief: (§1)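 Glycan array data came from 3228 arrays in the Consortium for Functional Glycomics database, and only arrays with an available protein sequence were kept. Glycan names were put into IUPAC-condensed notation, and columns mapping to the same glycan were averaged. The binding signal is a within-array Z-score, averaged across arrays of one protein sequence run at different concentrations or buffers and across linkers. A negative Z-score can be read as non-binding.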

[2] = target: Fuc(a1-2)Gal(b1-4)GlcNAc(b1-3)GalNAc
Method in brief: as §1

[3] = target: Fuc(a1-2)Gal(b1-4)GlcNAc(b1-3)[Fuc(a1-2)Gal(b1-4)GlcNAc(b1-6)]GalNAc
Method in brief: as §1

[4] = target: Fuc(a1-2)Gal(b1-4)GlcNAc(b1-3)[Fuc(a1-3)[Gal(b1-4)]GlcNAc(b1-6)]Gal(b1-4)Glc
Method in brief: as §1

[5] = target: Fuc(a1-2)Gal(b1-4)GlcNAc(b1-6)GalNAc
Method in brief: as §1

[6] = target: Fuc(a1-2)Gal(b1-4)GlcNAc6S
Method in brief: as §1

[7] = target: Fuc(a1-2)Gal(b1-4)[Fuc(a1-3)]GlcNAc
Method in brief: as §1

[8] = target: Fuc(a1-2)Gal(b1-4)[Fuc(a1-3)]GlcNAc(b1-2)Man(a1-3)[Fuc(a1-2)Gal(b1-4)[Fuc(a1-3)]GlcNAc(b1-2)Man(a1-6)]Man(b1-4)GlcNAc(b1-4)[Fuc(a1-6)]GlcNAc
Method in brief: as §1

[9] = target: Fuc(a1-2)Gal(b1-4)[Fuc(a1-3)]GlcNAc(b1-2)[Fuc(a1-2)Gal(b1-4)[Fuc(a1-3)]GlcNAc(b1-4)]Man(a1-3)[Fuc(a1-2)Gal(b1-4)[Fuc(a1-3)]GlcNAc(b1-2)Man(a1-6)]Man(b1-4)GlcNAc(b1-4)GlcNAc
Method in brief: as §1

[10] = target: Fuc(a1-2)Gal(b1-4)[Fuc(a1-3)]GlcNAc(b1-3)Gal(b1-4)[Fuc(a1-3)]GlcNAc
Method in brief: as §1

[11] = target: Fuc(a1-2)Gal(b1-4)[Fuc(a1-3)]GlcNAc(b1-3)Gal(b1-4)[Fuc(a1-3)]GlcNAc(b1-3)Gal(b1-4)[Fuc(a1-3)]GlcNAc
Method in brief: as §1

[12] = target: Fuc(a1-2)Gal(b1-4)[Fuc(a1-3)]GlcNAc(b1-3)GalNAc
Method in brief: as §1

[13] = target: Fuc(a1-2)Gal(b1-4)[Fuc(a1-3)]GlcNAc(b1-3)[Neu5Ac(a2-6)Gal(b1-4)GlcNAc(b1-6)]Gal(b1-4)Glc
Method in brief: as §1

[14] = target: Fuc(a1-2)Gal3S(b1-4)GlcNAc
Method in brief: as §1

[15] = target: Fuc(a1-2)Gal6S(b1-3)GlcNAc
Method in brief: as §1

[16] = target: Fuc(a1-2)Gal6S(b1-3)GlcNAc6S
Method in brief: as §1

Fuc(a1-2)Gal6S(b1-4)Glc = target: Fuc(a1-2)Gal6S(b1-4)Glc
Method in brief: as §1

[17] = target: Fuc(a1-2)Gal6S(b1-4)Glc6S
Method in brief: as §1

Fuc(a1-2)[Gal(a1-3)]Gal = target: Fuc(a1-2)[Gal(a1-3)]Gal
Method in brief: as §1

[18] = target: Fuc(a1-2)[Gal(a1-3)]Gal(b1-3)GalNAc
Method in brief: as §1

[19] = target: Fuc(a1-2)[Gal(a1-3)]Gal(b1-3)GalNAc(b1-3)Gal(a1-4)Gal(b1-4)Glc
Method in brief: as §1

[20] = target: Fuc(a1-2)[Gal(a1-3)]Gal(b1-3)GlcNAc
Method in brief: as §1

[21] = target: Fuc(a1-2)[Gal(a1-3)]Gal(b1-3)GlcNAc(b1-2)Man(a1-3)[Fuc(a1-2)[Gal(a1-3)]Gal(b1-3)GlcNAc(b1-2)Man(a1-6)]Man(b1-4)GlcNAc(b1-4)GlcNAc
Method in brief: as §1

[22] = target: Fuc(a1-2)[Gal(a1-3)]Gal(b1-3)GlcNAc(b1-2)Man(a1-3)[Fuc(a1-2)[Gal(a1-3)]Gal(b1-3)GlcNAc(b1-2)Man(a1-6)]Man(b1-4)GlcNAc(b1-4)[Fuc(a1-6)]GlcNAc
Method in brief: as §1

[23] = target: Fuc(a1-2)[Gal(a1-3)]Gal(b1-3)GlcNAc(b1-3)GalNAc
Method in brief: as §1

[24] = target: Fuc(a1-2)[Gal(a1-3)]Gal(b1-3)GlcNAc(b1-6)GalNAc
Method in brief: as §1

[25] = target: Fuc(a1-2)[Gal(a1-3)]Gal(b1-4)Glc
Method in brief: as §1

[26] = target: Fuc(a1-2)[Gal(a1-3)]Gal(b1-4)GlcNAc
Method in brief: as §1

[27] = target: Fuc(a1-2)[Gal(a1-3)]Gal(b1-4)GlcNAc(b1-2)Man
Method in brief: as §1

[28] = target: Fuc(a1-2)[Gal(a1-3)]Gal(b1-4)GlcNAc(b1-2)Man(a1-3)[Fuc(a1-2)[Gal(a1-3)]Gal(b1-4)GlcNAc(b1-2)Man(a1-6)]Man(b1-4)GlcNAc(b1-4)GlcNAc
Method in brief: as §1

B1: PhypaEULS3 (Physcomitrella patens) (protein)
chain: MLPVRLHCKADPNFNLAAVPGQGPVMVPFSPNDDFQVWYKDVTMSTRVKDETGSSAFSLINKATGQALRHAPEDLAQCLLADYDSNALDQTVLWTMSEDMGQGYCCIRLASQITRNLDVFRGDKKSGGVKEGSPVITFAWKKQDNQIWKMITAILEQKLISEEDLNSAVDHHHHHH
glycan array binding signal (z-score) [1]: 0.095 | glycan array binding signal (z-score) [2]: 0.368 | glycan array binding signal (z-score) [3]: 0.099 | glycan array binding signal (z-score) [4]: -1.98 | glycan array binding signal (z-score) [5]: -1.07 | glycan array binding signal (z-score) [6]: 1.08 | glycan array binding signal (z-score) [7]: -0.057 | glycan array binding signal (z-score) [8]: 1.06 | glycan array binding signal (z-score) [9]: 1.21 | glycan array binding signal (z-score) [10]: -0.629 | glycan array binding signal (z-score) [11]: -0.477 | glycan array binding signal (z-score) [12]: 1.99 | glycan array binding signal (z-score) [13]: 0.284 | glycan array binding signal (z-score) [14]: -0.262 | glycan array binding signal (z-score) [15]: 1.58 | glycan array binding signal (z-score) [16]: 3.08 | glycan array binding signal (z-score) (Fuc(a1-2)Gal6S(b1-4)Glc): -1.07 | glycan array binding signal (z-score) [17]: 1.17 | glycan array binding signal (z-score) (Fuc(a1-2)[Gal(a1-3)]Gal): 1.05 | glycan array binding signal (z-score) [18]: 0.261 | glycan array binding signal (z-score) [19]: -0.063 | glycan array binding signal (z-score) [20]: -0.005 | glycan array binding signal (z-score) [21]: 0.581 | glycan array binding signal (z-score) [22]: 0.598 | glycan array binding signal (z-score) [23]: 0.569 | glycan array binding signal (z-score) [24]: 1.08 | glycan array binding signal (z-score) [25]: -1.23 | glycan array binding signal (z-score) [26]: 0.471 | glycan array binding signal (z-score) [27]: 0.472 | glycan array binding signal (z-score) [28]: -0.394
